Data reported in PubChem BioAssay AID2685 (National Center for Advancing Translational Sciences (NCATS), 2010).
The other results are listed elsewhere or left out. Further columns of the screen follow, without active or inactive calls. Most of these compounds were active or inconclusive in the main read-out, so they are no random draw. The note in brackets gives the kind of curve behind each potency; many fits are weak.

Assay: qHTS Assay for Lipid Storage Modulators in Drosophila S3 Cells;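 for cell number change: cells counted by Cell Tracker Red CMTPX staining in the red channel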
Settings: BODIPY lipid droplet fluorescence, 18-24 h; for cell number change: measured here: cell count max response, cells fed with added oleic acid
Summary of the method: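 Laser-scanning cytometry quantifies lipid droplet accumulation (500–530 nm total intensity; droplet/cell object ratio) in oleic acid-fed (400 uM added) Drosophila S3 cells treated with a concentration series. 20 uM Triacsin C defined 100% inhibition.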

[1] = measured here: lipid fluorescence (Fed channel) AC50, cells fed with added oleic acid
[2] = measured here: cell number channel AC50, cells fed with added oleic acid

| SMILES | cell number change | AC50 [1] | AC50 [2] |
| --- | --- | --- | --- |
| CCCSC1C(C)=C(C)C(=O)N1Cc1ccccc1 (stereo unspecified) | -5.22% | 29.1 µM [falling, single point] |  |
| O=C(Nc1ccc2ccccc2c1)/C(=C\c1ccc2c(c1)OCO2)NC(=O)c1ccco1 | 38.6% | 29.1 µM [rising, single point] | 29.1 µM [rising, single point] |
| CC(C)CC(OC(=O)c1nsc(Cl)c1Cl)C(=O)NCC1CCCO1 (stereo unspecified) | 3.75% |  |  |
| CCc1c(C#N)c(N)nc(SCC(=O)OCc2ccccc2)c1C#N | 8.99% | 0.82 µM [rising, full curve] |  |
| Cc1ccc(C2=NN(C)c3nc4ccccc4n3C2)cc1 |  | 1.46 µM [rising, partial curve] | 2.31 µM [rising, partial curve] |
| CCC(=O)N1CCN(c2ccccc2NC(=O)Cc2ccc(Cl)cc2)CC1 | -6.78% | 1.64 µM [rising, partial curve, poor fit] |  |
| NC(=O)NC(=O)COC(=O)CCSc1ccccc1 | -33.5% | 0.0259 µM [falling, full curve] | 0.0291 µM [falling, full curve] |
| CCOC(=O)c1cnc2c(C)cccc2c1Nc1cccc(C(=O)O)c1 | 8.43% | 0.58 µM [rising, single point] | 1.64 µM [rising, partial curve, poor fit] |
| Cc1cc(C)nc(SCc2nc(N)nc(-c3ccccc3O)n2)n1 | 0.676% | 0.731 µM [rising, single point] |  |
| CCOC(=O)N1CCN(S(=O)(=O)c2ccc(OC)cc2)CC1 | 11.4% | 2.06 µM [falling, partial curve, poor fit] |  |
| Cc1cccn2c(=O)c(/C=C3\SC(=S)NC3=O)c(NCCCN3CCOCC3)nc12 | 1.43% | 25.9 µM [falling, single point] |  |
| Cc1oc(-c2ccc(Cl)cc2)nc1CN1CCCC(C(=O)NCCCN2CCCC2=O)C1 (stereo unspecified) |  | 6.51 µM [falling, partial curve] |  |
| COc1cccc(/C=C/C(=O)OCC(=O)c2c[nH]c3ccccc23)c1 |  | 0.103 µM [falling, full curve, poor fit] |  |
| COc1ccc(OC)c(NC(=O)C2CCCN(S(=O)(=O)c3c(C)noc3C)C2)c1 (stereo unspecified) | 19.9% |  |  |
| Cc1cc(C)nc(S/C=C/C(=O)c2ccccc2)n1 | -60.4% | 14.6 µM [falling, partial curve] | 16.4 µM [falling, partial curve] |
| CN(Cc1ccc(F)cc1)C(=O)c1cccc(S(=O)(=O)NCc2ccccc2)c1 | 60.6% |  | 7.31 µM [rising, partial curve] |
| O=C(NN=C1CCCCCC1)c1ccc(Cl)s1 | -19.3% | 0.58 µM [rising, single point] |  |
| O=C(NCCN1C(=O)C2C3C=CC(C3)C2C1=O)NCc1ccccc1 (stereo unspecified) | -16.2% | 29.1 µM [rising, single point] | 0.206 µM [falling, full curve, poor fit] |
| COC(=O)C(C)(C(=O)OC)c1ccc(C(F)(F)F)cc1[N+](=O)[O-] | 5.54% | 2.31 µM [rising, partial curve] | 0.291 µM [rising, partial curve] |
| Cc1ccc2c(N)c(C#N)sc2n1 | 3.51% |  |  |

| SMILES | cell number change | AC50 [1] | AC50 [2] |
| --- | --- | --- | --- |
| Cc1ccsc1C(C(=O)NC(C)(C)C)N(C(=O)c1csnn1)c1ccccc1 (stereo unspecified) |  | 29.1 µM [falling, single point] |  |
| N/C(Cc1cccc2ccccc12)=N\OC(=O)COc1ccccc1 | 0.407% |  |  |
| CN(Cc1cccs1)c1nc(-c2cccnc2)nc2ccccc12 | 83.3% | 1.84 µM [rising, partial curve] | 1.3 µM [rising, full curve] |
| Cc1cc(=O)n2nc(N3CCCC(C(=O)NCc4ccco4)C3)sc2n1 (stereo unspecified) | 8.86% |  |  |
| CC(=O)c1cccc(Nc2cc(C)nc3c(C)cc(C)cc23)c1 | 3.77% | 4.61 µM [falling, partial curve] |  |
| CC(C)c1cccc(C(C)C)c1NC(=O)CN1C(=O)NC2(CCCCCCC2)C1=O | 25% | 16.4 µM [rising, single point] |  |
| COc1ccc(N(CC(=O)NCCSc2ccccc2)S(=O)(=O)c2ccccc2)cc1OC | 2.09% |  |  |
| O=C(NCc1cccs1)c1ccncc1 |  | 0.116 µM [falling, full curve, poor fit] |  |
| COC(=O)c1ccc(-n2nnnc2SCC(=O)Nc2ccccc2F)cc1 | -15.1% | 13 µM [falling, partial curve, poor fit] |  |
| O=C(CSc1ccc(-c2nc3ccccc3[nH]2)cn1)N1CCN(C(=O)c2ccco2)CC1 | -13.4% | 20.6 µM [falling, single point] |  |
| O=C(CSc1nnc(COc2ccccc2)o1)N1CCOCC1 | 44.2% |  | 0.731 µM [rising, full curve] |
| COC(=O)C1NN=C(C(=O)c2ccc(Br)cc2)C1c1cccc(Br)c1 (stereo unspecified) | 24.4% | 16.4 µM [rising, partial curve] |  |
| O=C(NCc1ccccc1)C1=C[C@H](c2csc3ccccc23)C[C@H](OCCCCO)O1 | 3.81% | 6.51 µM [rising, single point] |  |
| Cc1cccc(-n2c(N)cc(=O)nc2SCC(=O)Nc2nnc(CC(C)C)s2)c1 | -29% | 3.26 µM [falling, partial curve] | 3.66 µM [falling, full curve, poor fit] |
| O=c1cc[nH]c2c(Cl)cccc12 | 1.27% |  | 0.58 µM [falling, full curve, poor fit] |
| COc1ccc(OC)c(NC(=O)Nc2ccc3c(c2)OCO3)c1 | -14.4% | 0.631 µM [rising, full curve, poor fit] |  |
| CC(C)NC(=O)NC1C2CC3CC(C2)CC1C3 (stereo unspecified) | -4.43% | 0.0184 µM [falling, full curve, poor fit] |  |
| CCCC(=O)N1CCC(Cc2ccccc2)CC1 | -20.6% |  |  |
| CC(Oc1ccccc1)C(=O)Nc1nc(-c2ccccn2)cs1 (stereo unspecified) |  |  | 2.59 µM [rising, single point] |
| CCCCn1c(N)c(N(CC)C(=O)Cc2ccc(S(=O)(=O)N3CCOCC3)s2)c(=O)[nH]c1=O | -17.6% | 0.116 µM [falling, full curve, poor fit] |  |

Taken from above:
AC50 [1], CCCCn1c(N)c(N(CC)C(=O)Cc2ccc(S(=O)(=O)N3CCOCC3)s2)c(=O)[nH]c1=O reads 0.116 µM [falling, full curve, poor fit]
AC50 [1], CC(C)c1cccc(C(C)C)c1NC(=O)CN1C(=O)NC2(CCCCCCC2)C1=O reads 16.4 µM [rising, single point]

The listing continues.

| SMILES | cell number change | AC50 [1] | AC50 [2] |
| --- | --- | --- | --- |
| COc1ccc(CCNc2nc(-c3ccc(O)cc3)cs2)cc1OC | -69% | 29.1 µM [rising, single point] | 29.1 µM [falling, single point] |
| CCC(C)N(C(=O)CCC(=O)Nc1cc(C)on1)C(C(=O)NC(C)(C)C)c1ccccc1Cl (stereo unspecified) | 22.6% | 29.1 µM [rising, single point] |  |
| N#Cc1ccccc1OCC(=O)OCC(=O)N1CCN(C(=O)c2ccco2)CC1 |  | 0.366 µM [rising, full curve] | 6.51 µM [rising, partial curve, poor fit] |
| COc1ccc2c(c1)O/C(=C\c1ccccc1C)C2=O | 31.5% | 29.1 µM [rising, single point] | 23.1 µM [rising, single point] |
| CCCCN(C(=O)CSc1ncn[nH]1)c1c(N)n(Cc2ccccc2)c(=O)[nH]c1=O | -0.82% | 13 µM [rising, partial curve, poor fit] |  |
| Cn1c(-c2ccc3c(c2)OCO3)cnc1NC(=O)CCC(=O)NCCc1ccccc1 | -4.84% | 6.51 µM [rising, partial curve, poor fit] |  |
| COCCC1CCCCN1C(=O)c1cccc(OC2CCN(S(C)(=O)=O)CC2)c1 (stereo unspecified) | -1.73% |  |  |
| Cc1nc(Nc2ccccc2)sc1-c1ccccc1 | -69.6% | 29.1 µM [falling, partial curve] | 25.9 µM [falling, partial curve] |
| O=C(COC(=O)c1ccco1)NCC1CCCCC1 | -3.31% | 6.51 µM [rising, partial curve] |  |
| CCCCCC(C)NC(=O)c1cc(S(=O)(=O)N2CCCCC2)ccc1N1CCOCC1 (stereo unspecified) | 21.1% | 20.6 µM [rising, partial curve, poor fit] |  |
| C=CCNc1nc(-c2sc(NC(=O)CC)nc2C)cs1 | -14.5% |  |  |
| CC(C)CN1CCC(=O)N([C@H](CO)c2ccccc2)CC1 | 21.9% | 0.58 µM [rising, single point] | 0.146 µM [rising, full curve, poor fit] |
| CCOC(=O)[C@@H]1[C@H]2COc3ccc(Br)cc3[C@H]2N2C(=O)N(c3cccc(F)c3)C(=O)[C@]12C | 41.9% | 2.91 µM [falling, single point] | 23.1 µM [rising, single point] |
| CC(C)(C)NC(=O)C(OC(=O)c1ccco1)c1ccc(Cl)cc1 (stereo unspecified) | 10.5% | 3.26 µM [rising, single point] |  |
| O=C(CN1C(=O)C2CCCCC2C1=O)OCc1nnc(-c2ccccc2)o1 (stereo unspecified) | -21.6% |  |  |
| CCOC(=O)C1=C(C)OC(N)=C(C#N)C1c1cc(C)sc1C (stereo unspecified) | -45.8% |  | 3.66 µM [falling, partial curve, poor fit] |
| CCn1cc(Cl)c(C(=O)Nc2c(C)nn(Cc3c(F)c(F)c(F)c(F)c3F)c2C)n1 | -22.4% | 0.58 µM [rising, single point] |  |
| CC/C(=N/Nc1ccc(Cl)cc1)c1cnnc(SC)n1 | -5.37% | 29.1 µM [rising, single point] |  |
| CCN(Cc1nc(-c2ccccc2)no1)C(=O)c1ccc2c(c1)OCO2 | 13% |  |  |
| O=C(CNC(=O)c1ccccc1)NCC1COc2ccccc2O1 (stereo unspecified) |  | 6.51 µM [rising, partial curve, poor fit] |  |
